Hit rate of the full screen: of about 31,000 sequences, about 1,400 (4.5%) were called active.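 How the source made its calls: active means median seed-adjusted z-score above 1 or below -1; inactive means the rest.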 The list shows a part of the results.
Experiment: Novel Modifiers of Survival Motor Neuron (SMN) Protein: Gene Identification via Genome-wide siRNA Screen;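 further: luminescence tracks full-length SMN protein made from the SMN2 reporter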
Settings: HEK293T SMN2-luciferase reporter, siRNA knockdown, 72 h; actives lie on both sides
In short: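 siRNA screen, 10418 genes ×3 siRNAs; 1 pmol/well, lipid reverse transfection into HEK293T SMN2-luc reporter line. 72 h, 37 °C, 5% CO2; ONE-Glo readout. Data: neg-ctrl normalized, log10, MAD; hit = MAD >1.0 or < -1.0.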
With GAUCUGAUGUUAGUACAUATT against B3GNT2 the median seed-adjusted z-score was inactive: -0.0427.
For CCUUUAUGGUGGUGAAUGATT against HSPA8, the median seed-adjusted z-score was inactive: 0.462.
With CUCGGAAGAUGGUACGAAATT against APOD the median seed-adjusted z-score was inactive: -0.115.
For GGCCGGUGUUUGACGACAATT against STK32C, the median seed-adjusted z-score was inactive: -0.311.
In the case of AAUGAGUACUGGAGAUUGATT against S100A13, the median seed-adjusted z-score is reported as inactive: 0.153.
For CCAAUAACCAGGAUUUUAATT against PPM1A, the median seed-adjusted z-score was inactive: 0.0153.
In the case of GGAUAAUUGCUGCAAGAGATT against TRAF3, the median seed-adjusted z-score is reported as inactive: 0.731.
In the case of GCAAGGAUAUUAUACAGCATT against GALNT3, the median seed-adjusted z-score is reported as inactive: -0.0426.
For GACCAACAUUGAUAGCUCATT against ITGA7, the median seed-adjusted z-score was inactive: 0.13.
In the case of GAUUUUCACUUGCAACUCATT against PDP2, the median seed-adjusted z-score is reported as inactive: -0.0726.
With GGUAGCUUCUGAUAAUGAUTT against LEO1 the median seed-adjusted z-score was active: 1.2.
In the case of GCAAUGGUGUGACGCAGAATT against NANOG, the median seed-adjusted z-score is reported as inactive: -0.106.
With AGAGGAUUAUGACAUGGAATT against SERPINB9 the median seed-adjusted z-score was inactive: 0.
For GAAUUACCUUUCUGAAAUATT against SLC23A1, the median seed-adjusted z-score was inactive: 0.904.
In the case of GGCUCAUAAUGGAGCAGGUTT against TIMM13, the median seed-adjusted z-score is reported as inactive: -0.422.
With GAACCACUAUGAUCAUUGATT against DPYSL2 the median seed-adjusted z-score was inactive: -0.569.
With GGUUAUUGUCGGUAUCGGATT against ADAM7 the median seed-adjusted z-score was inactive: -0.0638.
In the case of GGAUGAUGUGCGUAACAGATT against HAO1, the median seed-adjusted z-score is reported as inactive: 0.421.
For CAUUGACCACUACAAGUAATT against ITFG1, the median seed-adjusted z-score was inactive: -0.417.
With CCAAAGAGCGGGACCUGUATT against MAFA the median seed-adjusted z-score was inactive: 0.424.
For GCUUCACACUCGGUAGACATT against ZNF749, the median seed-adjusted z-score was inactive: 0.911.
With CAACCUCAACCAACCGGAATT against FAT2 the median seed-adjusted z-score was inactive: -0.286.
With AGACAGUGCAUGGUCCUGATT against GLI1 the median seed-adjusted z-score was inactive: -0.347.
With CAAAAAUGAUUGCGAAUGATT against APOL4 the median seed-adjusted z-score was inactive: -0.54.
With GCGUGGAAGUGAUUCGUCUTT against ATP8B1 the median seed-adjusted z-score was inactive: 0.357.
With GCUCGUGCCUUAGACAAGATT against QPCT the median seed-adjusted z-score was inactive: 0.933.
In the case of CGCAUAUGCCUCAAUCAAATT against REEP6, the median seed-adjusted z-score is reported as inactive: -0.348.
For GCACGAAUGGAAUAGAUAATT against WWP1, the median seed-adjusted z-score was inactive: -0.442.
With GUGCCGGAACUGAUCAGAATT against BAX the median seed-adjusted z-score was inactive: -0.478.
With CCUGGUUCAUUUUCGCCUUTT against SLC13A3 the median seed-adjusted z-score was inactive: 0.0434.
For CAACCAAACGGGAGCUUGATT against USP22, the median seed-adjusted z-score was inactive: 0.
With GGAACAAUUCUCCAACCUATT against T the median seed-adjusted z-score was inactive: -0.018.
For GAUUUGCUGUUCUAUACAATT against GLS, the median seed-adjusted z-score was inactive: 0.
In the case of CAGCUCUUCGAAUAACCAATT against ME1, the median seed-adjusted z-score is reported as inactive: -0.258.
In the case of GCGAGUAGAUAAUAUCGAATT against MAP3K5, the median seed-adjusted z-score is reported as inactive: -0.285.
For CAGCGAUGCUACGACAAUATT against PHF17, the median seed-adjusted z-score was active: 1.01.
With GCUGCUACAAGUUCAUCCATT against PSEN2 the median seed-adjusted z-score was inactive: -0.147.
In the case of CGAUCGCAAGUACCACGAATT against ATP8B1, the median seed-adjusted z-score is reported as inactive: 0.357.
For GGGCUGUGAUUAUUCCGAATT against XCR1, the median seed-adjusted z-score was inactive: -0.292.
With GAGUCAGGAUCGCAAGUCATT against SAFB2 the median seed-adjusted z-score was inactive: 0.0394.
In the case of CAGAGUGACUUAGGAAUUATT against KIF25, the median seed-adjusted z-score is reported as inactive: -0.0031.
With GGAAUGAAGGUCAUCGAAATT against TPM2 the median seed-adjusted z-score was inactive: 0.305.
For CCGGGAAAGUAGAAUUACATT against IGF2BP1, the median seed-adjusted z-score was inactive: -0.993.
With GCUGUUAGAUAAGCCCAAUTT against B3GAT3 the median seed-adjusted z-score was inactive: -0.00603.
In the case of GGACAUCUGACCAGAGAAATT against LILRB3, the median seed-adjusted z-score is reported as inactive: 0.0304.
For GAACAAAACCCGUUACAAUTT against CHRNB4, the median seed-adjusted z-score was inactive: -0.317.
With GUACGUUAGCCUAAUUGAATT against ZKSCAN5 the median seed-adjusted z-score was inactive: -0.229.
For GCAAUGGACCAGUAUAGUATT against ANAPC7, the median seed-adjusted z-score was inactive: -0.263.
With GGAGUACUACGAUCGCAUUTT against PYGM the median seed-adjusted z-score was inactive: -0.0689.
For GGGAGUAAGUUACUGCUAATT against CHST5, the median seed-adjusted z-score was inactive: 0.0149.
In the case of ACAUGGAUGUAUUCCACUUTT against IL21R, the median seed-adjusted z-score is reported as inactive: 0.0068.
In the case of GCUUUACAGAAAGCCGUGATT against STRADB, the median seed-adjusted z-score is reported as inactive: 0.21.
For CCUUCUCCUGAGUUUUUCATT against LHPP, the median seed-adjusted z-score was inactive: 0.02.
For GGACAAAGACUGUCGCCUATT against DHX35, the median seed-adjusted z-score was inactive: -0.066.
For CAACUGCUACCUUAGCAUATT against RNF133, the median seed-adjusted z-score was inactive: 0.
In the case of GAACUGUGCUGAUGUGAAATT against PATE1, the median seed-adjusted z-score is reported as active: 1.21.
With GUCCCUACGUGUACUGAAATT against LIAS the median seed-adjusted z-score was inactive: -0.31.
In the case of GCGCAACGGUUUAACCAUUTT against ATP7B, the median seed-adjusted z-score is reported as inactive: 0.0947.
For AUGACUAUCCUAAAUUUAATT against SEC11A, the median seed-adjusted z-score was inactive: -0.494.
In the case of GGUUUCGACUUCAACAUCATT against 3-Sep, the median seed-adjusted z-score is reported as inactive: 0.0683.
With GCAACAACGACAUCAAUGATT against RNH1 the median seed-adjusted z-score was inactive: 0.55.
With GUAUUCUCAAAAACGUAUATT against PDE3A the median seed-adjusted z-score was inactive: 0.291.
For GGAUUCUAAGUACAGAGAATT against ZNF323, the median seed-adjusted z-score was inactive: -0.319.
In the case of CUUCCUGGGUGUAAUGUUATT against IGSF1, the median seed-adjusted z-score is reported as inactive: 0.258.
For GGAUGCUUGUAUAUUCGUATT against S1PR3, the median seed-adjusted z-score was inactive: -0.0931.
In the case of GUGCUACUGUUUAUCCGUATT against VEGFA, the median seed-adjusted z-score is reported as inactive: 0.495.
With CGGACUUCAUUGUUCUCAATT against A4GALT the median seed-adjusted z-score was inactive: -0.286.
For GCUGAUCUAGCUCAAUUUATT against CCT8L2, the median seed-adjusted z-score was inactive: -0.39.
With GUAUUCUCAUCUUCGUCUATT against ATP1A4 the median seed-adjusted z-score was inactive: 0.116.
For GUACCGAGAGAAUAACAAATT against SYP, the median seed-adjusted z-score was inactive: -0.0289.
For GAGGGAAACUAAUCUGGAUTT against VIM, the median seed-adjusted z-score was inactive: 0.431.
For GUGGUUUCUUGAUCUGAAATT against HSDL2, the median seed-adjusted z-score was inactive: -0.0717.
With GGAAAUCUCGGAGAUCACATT against MLYCD the median seed-adjusted z-score was inactive: -0.154.
With GGAGUGCAAGGACAAGUAUTT against IRX2 the median seed-adjusted z-score was inactive: -0.409.
With CCUGCUAUUUAGUCAUUGATT against AOAH the median seed-adjusted z-score was inactive: -0.123.
With GCAAAUUGCUGCCCACGCUTT against NHLH2 the median seed-adjusted z-score was inactive: 0.
With CUAGAUGUCUAUAACAAUATT against PPP3CC the median seed-adjusted z-score was inactive: 0.271.
For GCGUCGAAGUUGUAGGAUUTT against ATAD2, the median seed-adjusted z-score was inactive: -0.246.
For GUGUGGUACAGAACAUUUATT against GUCA1C, the median seed-adjusted z-score was inactive: -0.617.
With GGACUAGUAUAGGAAUGGATT against ABCG2 the median seed-adjusted z-score was inactive: 0.
In the case of GAGAUUCCAAAAUUAGAUATT against VRK1, the median seed-adjusted z-score is reported as inactive: -0.148.
For GCAUAGACAUGGUCUCCGATT against GABRB1, the median seed-adjusted z-score was inactive: 0.238.
In the case of GCUAUUGGAGGAUCAGUUUTT against CCND1, the median seed-adjusted z-score is reported as inactive: -0.912.
With CAGCAAUUCAUAAGCAUUATT against GMPR the median seed-adjusted z-score was inactive: 0.0757.
For CCAGAGUCCUGUUCGAUUUTT against USP30, the median seed-adjusted z-score was inactive: -0.646.
With GAGCGGCGGUACAAAUGUATT against ZNF646 the median seed-adjusted z-score was inactive: 0.
For CCACUGGAGAAAACGUGUATT against TIAM2, the median seed-adjusted z-score was inactive: -0.0239.
For GCCGAGUUGUAUUUGAUGATT against CA3, the median seed-adjusted z-score was inactive: -0.276.
With GAUUGAAGAGUUAGCAAUATT against RUFY2 the median seed-adjusted z-score was inactive: 0.
With UGACCAAUGAGACUCUCAATT against PAQR5 the median seed-adjusted z-score was inactive: -0.0985.
In the case of ACAUGAAGCUGGAAUGUAATT against WNT7A, the median seed-adjusted z-score is reported as inactive: 0.0931.
For GGGUCCAACAUUCCGAAUATT against CHD1, the median seed-adjusted z-score was active: -1.03.
With CCCUUACUACAACUACAAATT against ZBTB38 the median seed-adjusted z-score was inactive: 0.448.
With GAGUCUAUCUUGAUAAUCUTT against PPWD1 the median seed-adjusted z-score was inactive: -0.341.
In the case of CGAGGACACAGAUAAAGAATT against CD7, the median seed-adjusted z-score is reported as inactive: 0.249.
For GAAGUGUUAUGUAAGGAGATT against EPHX2, the median seed-adjusted z-score was inactive: 0.
In the case of GGAGACUUGAAUUACCUUATT against STAT5B, the median seed-adjusted z-score is reported as inactive: 0.
With GCAUCAGUGCGGAAAGCAATT against SRGAP3 the median seed-adjusted z-score was inactive: -0.0961.
For CAUCUCUACUAAGCGAAAATT against PTRF, the median seed-adjusted z-score was inactive: -0.0151.
With CGGAGUUCAGUUUCACUGATT against COCH the median seed-adjusted z-score was inactive: -0.524.
In the case of CCUGGAUUGUUGUAAGUAATT against ZNF780B, the median seed-adjusted z-score is reported as inactive: -0.332.
With AUAUAUCACCUGUUUGUUATT against ATM the median seed-adjusted z-score was inactive: 0.22.
For GGAGAUAUGAUGAUACUAATT against MMP13, the median seed-adjusted z-score was inactive: 0.265.
With GAGAGUCCGUUGAAAAGUATT against BCLAF1 the median seed-adjusted z-score was inactive: -0.823.
With GAACUUCGUCUGUUUAACATT against USP12 the median seed-adjusted z-score was inactive: 0.121.
With GGAUGCAAUUUCUUAAGGATT against RNF14 the median seed-adjusted z-score was inactive: 0.296.
In the case of GCAUCGGUUUGGUCCUAUATT against NDUFA9, the median seed-adjusted z-score is reported as inactive: -0.325.
For GGACGCAGAGAACAGCAUGTT against SCT, the median seed-adjusted z-score was inactive: -0.454.
